Our source for the binding values is publication PMC6562800.

Sequences of proteins named here, by UniProt entry; tags and fusion partners are left off. Residues count along the entry.
UniProt Q99IB8, residues 384-750: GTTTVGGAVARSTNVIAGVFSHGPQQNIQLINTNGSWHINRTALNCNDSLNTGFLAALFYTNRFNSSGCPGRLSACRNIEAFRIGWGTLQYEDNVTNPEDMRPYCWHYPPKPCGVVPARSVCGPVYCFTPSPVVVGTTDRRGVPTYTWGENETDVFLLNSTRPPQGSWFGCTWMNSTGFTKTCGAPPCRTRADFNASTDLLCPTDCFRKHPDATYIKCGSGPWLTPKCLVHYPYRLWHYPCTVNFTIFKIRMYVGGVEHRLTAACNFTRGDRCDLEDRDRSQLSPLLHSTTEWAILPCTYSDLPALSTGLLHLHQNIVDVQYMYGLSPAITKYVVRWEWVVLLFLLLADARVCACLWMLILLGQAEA
UniProt P02649, residues 19-317: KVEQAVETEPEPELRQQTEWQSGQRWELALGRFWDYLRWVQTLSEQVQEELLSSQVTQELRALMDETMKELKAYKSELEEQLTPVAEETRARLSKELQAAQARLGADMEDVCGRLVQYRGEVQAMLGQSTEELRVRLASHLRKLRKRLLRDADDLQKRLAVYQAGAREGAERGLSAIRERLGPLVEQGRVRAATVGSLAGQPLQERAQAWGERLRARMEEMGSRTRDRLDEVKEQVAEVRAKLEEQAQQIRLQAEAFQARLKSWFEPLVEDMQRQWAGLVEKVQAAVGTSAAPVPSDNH

This assay addresses HCV envelope glycoprotein E2 (species recognised by AR3A) (Hepatitis C virus (JFH1)) (UniProt Q99IB8). Nature of the assay: co-IP; A4HAHCVcc-infected Huh7.5 cells lysed with Tx buffer (1% Triton X-100, 2 mM EDTA, PBS; DRMs preserved); antibodies (AR3A, AR4A, AR5A, A4, anti-HA) on protein G-Sepharose; washed in PBS-0.1% Triton X-100; western blot.

Results are given in words; binding and its absence hold for the method and conditions named. In cells and extracts the contact can be indirect. Some binding calls cover weakened binding; strength is not graded here.

With “Apolipoprotein E (ApoE) (from UniProt P02649 19-317)”, the binding result was “binds”.
